Publication PMC7819943, “Rice protein-binding microarrays: a tool to detect cis-acting elements near promoter regions in rice”
The other results are listed elsewhere or left out.

Sequences of proteins named here, by UniProt entry; tags and fusion partners are left off.
UniProt Q0JBA9, entry or part of it: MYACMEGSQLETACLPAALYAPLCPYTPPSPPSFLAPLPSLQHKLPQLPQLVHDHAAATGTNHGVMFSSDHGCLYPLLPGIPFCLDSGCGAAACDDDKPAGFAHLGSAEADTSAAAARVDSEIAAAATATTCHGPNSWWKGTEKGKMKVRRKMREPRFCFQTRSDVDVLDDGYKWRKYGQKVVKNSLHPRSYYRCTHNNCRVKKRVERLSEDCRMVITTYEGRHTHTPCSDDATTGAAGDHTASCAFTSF

The sequences below were run against OsWRKY34 (Oryza sativa, UniProt Q0JBA9 1-250) (assay: protein-binding microarray (RPBM); PBS, 2% BSA, 51.3 ng/ul salmon testes DNA, 50 uM zinc acetate, 200 nM TF, 25 C, 1 h; high values mean tight binding). Settings: protein: recombinant; tags: N-terminal polyhistidine and DsRed monomer fusion (pET32a); label: CyDye5-dUTP incorporated in the synthesized complementary strand; 3' TTTTT single-stranded linker to array surface; dsDNA, one strand shown.
Procedure, shortened: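 Transcription factors were made in E. coli BL21-CodonPlus as N-terminal fusions to a polyhistidine tag and DsRed, then purified on Ni–NTA. After primer extension with Cy5-dUTP and blocking with 2% BSA, a custom Agilent array was exposed for 1 h at 25 °C to 200 nM protein in PBS, 2% BSA, salmon testes DNA and 50 µM zinc acetate. Washed arrays were scanned on an Axon 4000B, and the binding signal is per-feature fluorescence intensity in arbitrary units.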
“CATCCTAGCCCATTTTCATTCACTCAGATGGTCCCACATGCGGAGTCACCTAGTGCAG” was tested, and the binding signal was 8280 fluorescence intensity (a.u.).
In the case of “AGCACCCTTGGTCTACACATTATTATTGCACACTATTCAACGGAGTCACCTAGTGCAG”, the binding signal is reported as 8070 fluorescence intensity (a.u.).
For “AGGAGCTAGTTGGGGTGGTGTGCGCTGCGGCGAAGAGAGTCGGAGTCACCTAGTGCAG”, the binding signal was 8280 fluorescence intensity (a.u.).
With “AATATTTTTGCTTACGGTTCGCCTTGTCGTCTTGGTATTGCGGAGTCACCTAGTGCAG” the binding signal was 13600 fluorescence intensity (a.u.).
With “ATGTATCTCTTGTATAGCCGCCATCCGGCCTACCCAGAATCGGAGTCACCTAGTGCAG” the binding signal was 11500 fluorescence intensity (a.u.).
For “AATGCTGTACAGATTACGGCTCATAATTTCTACCGCTGATCGGAGTCACCTAGTGCAG”, the binding signal was 8200 fluorescence intensity (a.u.).
“AACTCTCCTACACACATAAACTTCCAACTTTTCCGTCACACGGAGTCACCTAGTGCAG” was tested, and the binding signal was 10000 fluorescence intensity (a.u.).
“AGCATATCAGCCACTCTTTCTTCTTTGTCTTTATCAACTCCGGAGTCACCTAGTGCAG” was tested, and the binding signal was 8250 fluorescence intensity (a.u.).
With “GCGGGCCACCCATGTCATAGACTACCTATCTATCCGCTTTCGGAGTCACCTAGTGCAG” the binding signal was 8770 fluorescence intensity (a.u.).
“CGACCACCACCACCACCACGCCGCGGCATCCACAACGCCACGGAGTCACCTAGTGCAG” was tested, and the binding signal was 8210 fluorescence intensity (a.u.).
For “TTATACTATTCATCTCCAACGTTTAACCGTTCATTTTATTCGGAGTCACCTAGTGCAG”, the binding signal was 9000 fluorescence intensity (a.u.).
With “TGCAGGTCTCTCTCATCATCTCATGATCGATTAGGTCTTCCGGAGTCACCTAGTGCAG” the binding signal was 8870 fluorescence intensity (a.u.).
For “CCACACTTGCCCGCTACCCACTCTGATCTATCTCCACTGTCGGAGTCACCTAGTGCAG”, the binding signal was 9630 fluorescence intensity (a.u.).
“AACCCGAAAAGCTGCCGTCGCCTCGTCTCGTCGCCCCGAACGGAGTCACCTAGTGCAG” was tested, and the binding signal was 10100 fluorescence intensity (a.u.).
For “TCTACTCCTTGCTCTGTAGCCACCACATCTTGGATGAATCCGGAGTCACCTAGTGCAG”, the binding signal was 9590 fluorescence intensity (a.u.).
For “AATACATCTCCATCTCTTACACTCTCCTACTACCTACCTCCGGAGTCACCTAGTGCAG”, the binding signal was 10100 fluorescence intensity (a.u.).
With “CTTTTTCATATATTTTTTTCCGTTACAACACACATAAACTCGGAGTCACCTAGTGCAG” the binding signal was 11100 fluorescence intensity (a.u.).
For “CCTGGGTAGTGGGGACCGTAGATGCGCCGTCGGACGGCCGCGGAGTCACCTAGTGCAG”, the binding signal was 8690 fluorescence intensity (a.u.).
With “TGACTGTATTTTAATGGTATTTGTTGATTTTTTTTAAAAACGGAGTCACCTAGTGCAG” the binding signal was 8390 fluorescence intensity (a.u.).
For “GCACTAATGTTTTTTTTCTTGTTTTGTGTAAGTAATCTGACGGAGTCACCTAGTGCAG”, the binding signal was 11900 fluorescence intensity (a.u.).
With “CCCGAGTTTTTCCCGTCGTTTTGGGCCCGGACCCGAGCTTCGGAGTCACCTAGTGCAG” the binding signal was 10700 fluorescence intensity (a.u.).
“GGCTGGTTTTTTTTTTTTTGTGAGGTCCAAGGTCACACACCGGAGTCACCTAGTGCAG” was tested, and the binding signal was 10800 fluorescence intensity (a.u.).
For “CCGCGATGTCTTCCGCTCCGCCGCCGCCGCGGTCGCCGGCCGGAGTCACCTAGTGCAG”, the binding signal was 8620 fluorescence intensity (a.u.).
For “TGATGTTACTTTGATTTGGGGTTTGATTTGGGAATATGCACGGAGTCACCTAGTGCAG”, the binding signal was 13500 fluorescence intensity (a.u.).
With “CTCACCAAAACGACCTTTTTGTGCTTGTCCTGCCTGCTTCCGGAGTCACCTAGTGCAG” the binding signal was 8820 fluorescence intensity (a.u.).
For “AGAGCTAGGGTTTGGGTAATTTGGCGAGCGAGGAGCGAGGCGGAGTCACCTAGTGCAG”, the binding signal was 8260 fluorescence intensity (a.u.).
With “TATTTGTCTGTGGTTTCGTGTTCTGATAAATATTTGTTTCCGGAGTCACCTAGTGCAG” the binding signal was 10300 fluorescence intensity (a.u.).
With “CATGCTCCAACTCCAATTGCAAGATAATGTTCGGATCTTTCGGAGTCACCTAGTGCAG” the binding signal was 8100 fluorescence intensity (a.u.).
For “AAGTGTGTGCTCTCATTCATGTGTCTACTATTAGGGTTATCGGAGTCACCTAGTGCAG”, the binding signal was 10100 fluorescence intensity (a.u.).
“ATTTTAAGATGGCGTATTCACTCAACCATTACAAGTGTCACGGAGTCACCTAGTGCAG” was tested, and the binding signal was 8600 fluorescence intensity (a.u.).
“GTCGTTCCGTATATATACTACATCTTTCCAGAATTCCAGTCGGAGTCACCTAGTGCAG” was tested, and the binding signal was 9200 fluorescence intensity (a.u.).
For “GCACATTATTTCCTGTCTCTTGAGAGTCTTTGACACACACCGGAGTCACCTAGTGCAG”, the binding signal was 10300 fluorescence intensity (a.u.).
“CCCGCTGCCCATCTCTCTCTTTATTTATCTTCTTAAAATACGGAGTCACCTAGTGCAG” was tested, and the binding signal was 8950 fluorescence intensity (a.u.).
In the case of “ATCTCTCTCTCTCTCTCTCACACACACCCCTAGATGAACACGGAGTCACCTAGTGCAG”, the binding signal is reported as 8070 fluorescence intensity (a.u.).
In the case of “ATATTAGATCCAAAGGAATATTCAGTTCATCTCTTTATTTCGGAGTCACCTAGTGCAG”, the binding signal is reported as 8580 fluorescence intensity (a.u.).
“ATCTCCTCTTCTCTTCTTCCACCGCCGCGGCGGCTTCGCTCGGAGTCACCTAGTGCAG” was tested, and the binding signal was 9140 fluorescence intensity (a.u.).
For “ACAGCTAAATCGCACGCACACCACAGTCTACAGCATCTCTCGGAGTCACCTAGTGCAG”, the binding signal was 9550 fluorescence intensity (a.u.).
With “CTCGATTTTCTCACTCAAATTTACAGTGCATTTTCTTGTACGGAGTCACCTAGTGCAG” the binding signal was 9540 fluorescence intensity (a.u.).
With “TATGTATAACTAGGTTGACTTTTTTTTCTCTCTCTCAAAACGGAGTCACCTAGTGCAG” the binding signal was 10400 fluorescence intensity (a.u.).
With “CTTCCGCCCCGCCGGCGCCCTCGCTTCGCTGTCCGCTGTGCGGAGTCACCTAGTGCAG” the binding signal was 9230 fluorescence intensity (a.u.).
In the case of “GGTTGATGCATGCCTTTTCTTCCGCCGTTTAAAGATCCAACGGAGTCACCTAGTGCAG”, the binding signal is reported as 9960 fluorescence intensity (a.u.).
For “CACTAGTTTTAGTTACTAACTTATGGCTCTTGTGCTATCACGGAGTCACCTAGTGCAG”, the binding signal was 8070 fluorescence intensity (a.u.).
“TATTTCCTTTTTTCCATGTTTTTGAATTCCTACTTTCATACGGAGTCACCTAGTGCAG” was tested, and the binding signal was 9900 fluorescence intensity (a.u.).
With “CCAATTCCCGCGCTTATATATATATCCCTCGCCTTCGCCTCGGAGTCACCTAGTGCAG” the binding signal was 8690 fluorescence intensity (a.u.).
For “TTTTCCTGTATTTTCTAATCATCTGTTTTACACTTATATTCGGAGTCACCTAGTGCAG”, the binding signal was 11700 fluorescence intensity (a.u.).
With “AACCAGGCGTTTGATGTGGGCAAGGGAACAAGGTATTATTCGGAGTCACCTAGTGCAG” the binding signal was 8070 fluorescence intensity (a.u.).
With “CTCTCCGTCGTTTGCCGCTCATCCTCCTGTCCCGACACACCGGAGTCACCTAGTGCAG” the binding signal was 11700 fluorescence intensity (a.u.).
For “TTTTCAGCGTCCAACTTTTTTAACCGTCTGTCCGTCTTATCGGAGTCACCTAGTGCAG”, the binding signal was 12200 fluorescence intensity (a.u.).
With “GTTTGTTTTCTCTGAATCTCTGCATCCCGCTCTGTCTATGCGGAGTCACCTAGTGCAG” the binding signal was 10300 fluorescence intensity (a.u.).
For “TTTGAGTTGACTTCATTTTGAAAAATACAAACTTAGCTTTCGGAGTCACCTAGTGCAG”, the binding signal was 8210 fluorescence intensity (a.u.).
In the case of “ACATAACGTCTCTTCTTCCGCTGACCACACGGTCCCACCCCGGAGTCACCTAGTGCAG”, the binding signal is reported as 9200 fluorescence intensity (a.u.).
In the case of “TCTTCTTCCAGACCGACTCGTTGGTCCTTTTATTGCCACTCGGAGTCACCTAGTGCAG”, the binding signal is reported as 8760 fluorescence intensity (a.u.).
With “TCTCTTTGTTCTTTTCTTAAGCAAAGATTGTTTTTTTCCCCGGAGTCACCTAGTGCAG” the binding signal was 8250 fluorescence intensity (a.u.).
With “GATATCACAACCTGACCCACATTAGTCACACGCACTCACACGGAGTCACCTAGTGCAG” the binding signal was 11200 fluorescence intensity (a.u.).
